# Laboratory results published in the supplement of paper PMC12823440, “Inhibitors supercharge kinase turnover through native proteolytic circuits” (Nature, 2025).
# Sequences of proteins named here, by UniProt entry; tags and fusion partners are left off.
# UniProt P11362, whole entry, looked up: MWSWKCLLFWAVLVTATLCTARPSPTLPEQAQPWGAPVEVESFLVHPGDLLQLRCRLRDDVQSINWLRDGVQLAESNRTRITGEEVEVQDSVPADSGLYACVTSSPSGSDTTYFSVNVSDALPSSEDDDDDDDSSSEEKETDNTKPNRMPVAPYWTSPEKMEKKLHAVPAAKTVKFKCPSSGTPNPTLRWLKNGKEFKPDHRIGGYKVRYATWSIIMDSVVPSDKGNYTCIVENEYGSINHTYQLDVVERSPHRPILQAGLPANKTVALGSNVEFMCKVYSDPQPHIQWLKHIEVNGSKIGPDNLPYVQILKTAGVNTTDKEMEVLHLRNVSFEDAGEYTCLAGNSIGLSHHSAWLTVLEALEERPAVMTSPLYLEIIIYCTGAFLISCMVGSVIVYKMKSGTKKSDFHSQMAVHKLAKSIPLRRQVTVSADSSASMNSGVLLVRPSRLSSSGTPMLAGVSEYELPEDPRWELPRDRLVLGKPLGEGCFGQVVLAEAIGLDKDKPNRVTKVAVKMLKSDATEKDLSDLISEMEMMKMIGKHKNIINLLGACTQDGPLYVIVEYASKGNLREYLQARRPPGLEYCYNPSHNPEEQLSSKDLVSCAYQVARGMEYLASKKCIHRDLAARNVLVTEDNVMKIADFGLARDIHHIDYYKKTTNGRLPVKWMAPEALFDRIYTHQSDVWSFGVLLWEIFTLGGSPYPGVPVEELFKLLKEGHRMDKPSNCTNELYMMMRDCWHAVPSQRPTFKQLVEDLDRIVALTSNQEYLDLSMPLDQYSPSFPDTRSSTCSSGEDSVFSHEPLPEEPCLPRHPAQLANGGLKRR
# Structures can show the parent of a compound that is named as a salt. The list shows a part of the results. Hit calls seldom repeat between salt and free forms of one compound.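 Kinases, fused to nanoluciferase, were expressed in K562 cells; luminescence was measured every 4 h from 2 to 18 h as percent of control (DMSO = 100%, positive control = 0%). A time point is decreased if signal falls significantly (2 sigma). Hits were called by the authors by a rule that is not shown; the count of time points alone does not decide it.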
# Target: FGFR1 (UniProt P11362)
# Test: number of time points (of 5) at which kinase-Nluc abundance scored as decreased, DMSO-normalised (count); higher = more persistent destabilization
# Conditions: K562; 2-18 h
row,SMILES,number of time points
1,"CN1CC[C@H](c2c(O)cc(O)c3c(=O)cc(-c4ccc(C(F)(F)F)cc4Cl)oc23)[C@H]1CO [(2S,3R)-Voruciclib (hydrochloride)] (2.5 µM)",0
2,CCn1nc(C2CCN(C(=O)CCO)CC2)nc1-c1cnc(N)c(-c2nnc(C(C)(C)C)o2)n1 (10 µM),0
3,O=C(O)c1ccccc1Nc1cccc(C(F)(F)F)c1 [Flufenamic acid] (10 µM),0
4,CNC(=O)c1ccc(-c2cnc3cnc(-c4ccccc4)cn23)cc1 (10 µM),0
5,Nc1cccc(S(=O)(=O)N2CCCN(S(=O)(=O)c3ccc4c(c3)OCCO4)CC2)c1 (10 µM),0
6,CC1(COc2ccc3c(c2)ncn3-c2ccc3cccc(N4CCC(N)CC4)c3n2)COC1 [Crenolanib] (2.5 µM),0
7,O=C(CCCCCn1cc(Nc2ncc(Cl)c(Nc3ccc(Cl)cc3)n2)cn1)NO (2.5 µM),0
8,CC(C)n1cnc2c(Nc3cccc(Cl)c3)nc(NCCO)nc21 (10 µM),0
9,COc1ccc(CCNc2ncc3c(=O)n(-c4cccc(F)c4)c(=O)[nH]c3n2)cc1OC (2 µM),0
10,OCCN(CCO)c1ccc(C(c2ccc(Cl)cc2)c2ccc(N(CCO)CCO)cc2)cc1 (10 µM),0
11,CSc1ccc(CN2CCCC(Nc3ccc4[nH]ncc4c3)C2)cc1 (centres undefined) [Rho-Kinase-IN-1] (10 µM),0
12,COc1cc(C(=O)N2CCC(N3CCN(C)CC3)CC2)ccc1Nc1ncc2c(n1)N(C)c1ccccc1C(=O)N2C (10 µM),0
13,CC(C)c1cc(/C=C(\C#N)C(N)=O)cc(C(C)C)c1O (10 µM),0
14,CCCNC(=O)c1cn2ncnc(Nc3cc(C(=O)NC4CC4)ccc3C)c2c1C (10 µM),0
15,COc1ccc2c(c1OC)OC1c3ccc(O)cc3OCC21 (centres undefined) [Methylnissolin] (10 µM),0
16,CN(CC(=O)N(Cc1ccc(C2CCCCC2)cc1)c1ccc(C(=O)O)c(O)c1)S(=O)(=O)c1c(F)c(F)c(F)c(F)c1F (2.5 µM),0
17,CCCCNC(=N)NC(=N)N [Buformin (hydrochloride)] (2.5 µM),0
18,O=C1NCCCc2c1oc1ccc(O)cc21 (10 µM),0
19,c1ccc(-c2oc3ncnc(NC[C@@H]4CCCO4)c3c2-c2ccccc2)cc1 (2.5 µM),0
20,CC(=O)Nc1nc2ccc(-c3cnc(C)c(NC(=O)OC4CCCCC4)c3)cc2s1 (10 µM),0

# A draw from above in order of length of the SMILES, low to high:
row,SMILES,number of time points
18,O=C1NCCCc2c1oc1ccc(O)cc21 (10 µM),0
13,CC(C)c1cc(/C=C(\C#N)C(N)=O)cc(C(C)C)c1O (10 µM),0
9,COc1ccc(CCNc2ncc3c(=O)n(-c4cccc(F)c4)c(=O)[nH]c3n2)cc1OC (2 µM),0

# Following part.

row,SMILES,number of time points
1,CCOc1ccccc1C=C1C(=O)Nc2ccccc21 (10 µM),0
2,Cc1ccc(-c2nn(C(C)(C)CNC(=O)c3ccncc3)c3ncnc(N)c23)cc1 (2.5 µM),0
3,CC[C@H](Nc1ncnc2[nH]cnc12)c1oc2ccccc2c(=O)c1-c1cccc(F)c1 [Tenalisib] (10 µM),0
4,CC(C)(C)C(=O)N1N=CC[C@H]1c1ccccc1 (10 µM),0
5,COC1(C(=O)N[C@@H](C)c2ccc(-n3cc(F)cn3)nc2)CCC(c2nc(C)cc(Nc3cc(C)[nH]n3)n2)CC1 (stereo partly drawn) [trans-Pralsetinib] (2.5 µM),0
6,CN(C)Cc1cccc(N=C(c2ccccc2)c2c(O)[nH]c3cc(C(N)=O)ccc23)c1 (10 µM),0
7,COc1nc(-c2ccnc(NC(=O)C3CC3)c2)sc1C(N)=O [GSK-3β inhibitor 2] (10 µM),0
8,C=C[C@H]1[C@H](O[C@@H]2O[C@H](CO)[C@@H](O)[C@H](O)[C@H]2OC(=O)c2c(O)cc(O)cc2-c2cccc(O)c2)OC=C2C(=O)OCC[C@H]21 [Amarogentin] (10 µM),0
9,COc1cc(C(C)=O)cc(OC)c1O [Acetosyringone] (10 µM),0
10,O=C(O)CCc1ccc(NCc2cccc(Oc3ccccc3)c2)cc1 (10 µM),0
11,Cc1cc(C(C)Nc2ccccc2)c2nc(N3CCOCC3)cc(=O)n2c1 (centres undefined) (10 µM),0
12,O=C(O)c1ccc(-c2c[nH]c3ncc(-c4ccccc4)cc23)cc1C1CCCC1 (2.5 µM),0
13,CC1=C(CC(=O)O)c2cc(F)ccc2/C1=C\c1ccc(C(C)C)cc1 (10 µM),0
14,COc1cc(N2CCC(N(C)C)CC2)ccc1Nc1ncc(Cl)c(Nc2ccccc2P(C)(C)=O)n1 (2.5 µM),0
15,Cc1ccc(-c2ccc3c(ccc4sc5c(c43)NC[C@@H](C)NC5=O)n2)cn1 (10 µM),0
16,Nc1cc(C(F)F)c(-c2nc(N3C4CCC3COC4)nc(N3C4CCC3COC4)n2)cn1 (2.5 µM),0
17,O=c1cc(-c2ccc(O)c(O)c2O)oc2ccccc12 (10 µM),0
18,CC(C)c1ccc(CC(=O)N2CCN(c3ccc(C#N)nn3)CC2)cc1 (10 µM),0
19,CN(C)Cc1cccc(N=C(c2ccccc2)c2c(O)[nH]c3cc(C(=O)N(C)C)ccc23)c1 (10 µM),0
